Measured values from PMC3994006.
Results are given in words; binding and its absence hold for the method and conditions named. In cells and extracts the contact can be indirect. Some entries that bind do so weakly or less than the wild type. Where a sequence is shown, tags or fusion partners need not be part of it.

The chains behind the UniProt entries cited, without tags or fusion partners.
UniProt Q9QZL0: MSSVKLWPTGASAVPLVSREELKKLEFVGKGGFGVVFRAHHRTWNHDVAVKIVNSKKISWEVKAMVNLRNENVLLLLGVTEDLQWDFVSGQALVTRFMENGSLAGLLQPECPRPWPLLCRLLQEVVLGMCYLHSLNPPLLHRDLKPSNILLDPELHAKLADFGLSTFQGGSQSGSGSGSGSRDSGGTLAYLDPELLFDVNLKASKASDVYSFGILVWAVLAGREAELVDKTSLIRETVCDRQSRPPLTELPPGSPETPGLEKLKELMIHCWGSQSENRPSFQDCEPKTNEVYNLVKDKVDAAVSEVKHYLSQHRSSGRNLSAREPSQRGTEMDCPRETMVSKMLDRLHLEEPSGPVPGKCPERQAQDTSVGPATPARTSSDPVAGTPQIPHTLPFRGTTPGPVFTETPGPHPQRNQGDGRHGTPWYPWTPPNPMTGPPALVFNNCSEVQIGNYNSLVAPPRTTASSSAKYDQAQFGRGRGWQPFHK
UniProt Q9DC51: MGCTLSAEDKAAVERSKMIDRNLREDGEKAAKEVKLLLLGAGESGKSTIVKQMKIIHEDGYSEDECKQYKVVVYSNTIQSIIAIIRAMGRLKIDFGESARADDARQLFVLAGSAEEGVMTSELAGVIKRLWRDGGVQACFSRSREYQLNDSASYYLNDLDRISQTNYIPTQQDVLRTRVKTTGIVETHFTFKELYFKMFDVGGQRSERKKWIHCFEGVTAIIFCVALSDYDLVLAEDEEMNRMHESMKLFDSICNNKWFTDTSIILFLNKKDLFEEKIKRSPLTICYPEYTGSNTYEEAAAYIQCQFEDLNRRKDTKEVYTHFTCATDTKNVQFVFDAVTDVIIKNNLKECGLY

Legend:
Flag-RGS19 = molecular target: T1, Flag-RGS19 (UniProt Q9CX84); test: co-IP; pairs co-expressed in 293T cells; Flag-tagged protein immunoprecipitated with anti-Flag M2-beads; Myc-tagged protein detected with anti-myc antibody by Western blotting
T1 sequence: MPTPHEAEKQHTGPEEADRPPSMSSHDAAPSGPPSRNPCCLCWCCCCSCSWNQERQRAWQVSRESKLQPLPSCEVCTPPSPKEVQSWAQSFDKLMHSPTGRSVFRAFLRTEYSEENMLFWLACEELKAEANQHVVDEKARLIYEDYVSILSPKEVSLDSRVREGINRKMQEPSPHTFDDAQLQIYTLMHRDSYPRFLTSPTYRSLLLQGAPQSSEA

Flag-RIP3 = Flag-RIP3 (UniProt Q9QZL0); test: as above

## Myc-GNAI3 (from UniProt Q9DC51 1-354)
Flag-RGS19
  binding: binds
Flag-RIP3
  binding: binds

B1: Myc-RGS19 (protein, UniProt Q9CX84 1-216)
chain: T1 sequence
Flag-RIP3
  binding: binds
